Results on 40 molecules are retold here after PubChem BioAssay AID493014 (National Center for Advancing Translational Sciences (NCATS), 2011).

The other results are listed elsewhere or left out. These are further read-outs of the screen, such as a control signal, another cell line or another target. No call is given for them. Compounds called inactive in the main read-out are mostly missing here. Words in brackets tell the shape of the fitted curve; partial curves, single points and poor fits give uncertain potencies.

This experiment in a line: qHTS Assay to Find Inhibitors of Chronic Active B-Cell Receptor Signaling. The note with it: ABC-DLBCL IkBa-CBG/CBR reporter, luminescence ratio (green luciferase fused to IkBa over red control in TMD8 lymphoma cells), 4 h. The method, boiled down:
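TMD8 ABC-DLBCL cells carrying doxycycline-inducible green luciferase fused to IkappaBalpha plus unfused red luciferase were exposed to compounds (up to 46 uM) for 4 hrs at 37C. Activity came from the overlap-corrected green/red luminescence ratio.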
In general terms: qHTS replaces the single test concentration by a dilution series.

Where [1] appears, read: measured here: CBR red luminescence, cell number.
[2] abbreviates: measured here: IkBa-CBG green luminescence.

In the case of `CN(C(=O)c1ccc2nccnc2c1)C1CCCCC1`, the AC50 under setting [1] was 35.5 µM [falling, single point].
Still for that read-out and setting: to `Cc1c(C#N)c(O)n(CCO)c(=O)c1N=Nc1ccc2c(c1)COC2=O` belongs 35.5 µM [rising, single point]; to `Cc1csc(NC(=O)CSc2ncnc3c2cnn3-c2ccccc2Cl)n1`, 25.9 µM [falling, partial curve].
`COc1ccc(NC(=O)COC(=O)CN2C(=O)C3CC=CCC3C2=O)c([N+](=O)[O-])c1` (configuration not stated): the AC50 under setting [1] was 23.1 µM [rising, single point].
On the same count and under the same terms, to `Cc1cc(NC(=O)c2cncc(Br)c2)no1` belongs 31.6 µM [falling, single point]; to `Cc1c(Cl)cccc1Nc1ncccc1C(=O)OCC(O)CO` (configuration not stated), 1.12 µM [rising, full curve, poor fit]; to `COc1ccc(/C=N/NC(=O)c2nonc2N)cc1OC`, 12.6 µM [rising, partial curve, poor fit].
Still for that read-out and setting: to `CCN(CC)CCC(c1cc(OC)c(OC)c(OC)c1)c1c(OC)cc(OC)c2c(-c3ccccc3)cc(=O)oc12` (configuration not stated) belongs 35.5 µM [falling, single point]; to `COCC(=O)N1CCC(Oc2ccc(C(=O)NCCc3ccncc3)cc2)CC1`, 4.47 µM [rising, partial curve, poor fit].
The same measure, in the same setting: under `Cn1cc(CNCc2ccccc2OCC(O)CN2CCc3ccccc3C2)cn1` (configuration not stated) stands 35.5 µM [falling, single point]; under `Cn1nnc(NC(=S)NC(=O)c2cccc3c(Cl)cccc23)n1`, 10 µM [rising, partial curve]; under `O=C1NCCN1C(=O)C12CC3CC(CC(C3)C1)C2`, 3.16 µM [falling, partial curve, poor fit].
Regarding `Cc1cc(C(F)F)n2nc(C(=O)Nc3ccc(S(=O)(=O)NC45CC6CC(CC(C6)C4)C5)cc3)nc2n1`, the AC50 under setting [1] is 5.17 µM [falling, full curve, poor fit].
As for `Cc1cccc(Nc2nc3ccccc3s2)c1C`, under setting [1], the AC50 is 0.92 µM [rising, full curve].
On the same count and under the same terms, to `Cc1ccc(CN(Cc2ccccc2)C(=S)NCC(=O)NCc2cccnc2)o1` belongs 35.5 µM [falling, single point]; to `CCOCCCNCC(O)c1ccccc1` (configuration not stated), 0.731 µM [falling, full curve, poor fit].
On the same count and under the same terms, to `CCCC(=O)NC(=S)Nc1cc(-c2nc3ncccc3o2)ccc1C` belongs 0.708 µM [rising, full curve, poor fit]; to `O=C(Nc1ccccc1C(F)(F)F)c1cc(-c2ccc(O)cc2)on1`, 10 µM [falling, partial curve, poor fit].
Still for that read-out and setting: to `O=C(OCCc1cc2ccccc2c(=O)o1)c1cccs1` belongs 20.6 µM [rising, partial curve, poor fit].
Regarding `Cc1nn2c(-c3ccccn3)ccnc2c1Cl`, under setting [1], the AC50 was 6.31 µM [falling, partial curve, poor fit].
Take `CCN(CC)S(=O)(=O)c1ccc(N2CCOCC2)c(NC(=O)c2[nH]c(C)c(C(C)=O)c2C)c1`: the AC50 runs as follows: under setting [1], 4.11 µM [rising, full curve]; under setting [2], 4.11 µM [falling, full curve].
As to `C/C(=N\NC(=O)c1cc(C)[nH]n1)c1cccs1`, the AC50 under setting [1] is 7.08 µM [falling, partial curve].
The same measure, in the same setting: to `CCCN(CCC)C(=O)C1CCN(c2cc(C)nc3c(-c4ccc(OC)c(OC)c4)c(C)nn23)CC1` belongs 7.31 µM [rising, partial curve, poor fit].
On the same count and under the same terms, to `C=CCNc1nc(NCc2ccccc2)c(C#N)c2c1CN(C)CC2` belongs 3.98 µM [rising, full curve, poor fit]; to `Cc1ccc(C(=O)COC(=O)c2nc3nccc(C)n3n2)c(C)c1`, 18.4 µM [rising, partial curve]; to `C/C=C/C=N/Nc1nc(C)cc(=O)[nH]1`, 12.6 µM [falling, partial curve, poor fit].
Still for that read-out and setting: under `CCCc1cc(=O)oc2c3c(cc(OCC(=O)N[C@@H](CSC)C(=O)O)c12)OC(C)(C)CC3` stands 15.8 µM [rising, partial curve, poor fit].
For `O=C(O)CC1(c2ccccc2)C(=O)c2ccccc2C1=O`, the AC50 under setting [1] was 35.5 µM [falling, single point].
The same measure, in the same setting: under `CSc1nc(C)c(C(=O)C[n+]2ccc(C)cc2)cc1C#N` stands 3.55 µM [falling, full curve, poor fit]; under `Cc1c(/N=C(\[O-])Nc2ccc(Br)cc2)sn[n+]1C`, 5.62 µM [falling, full curve, poor fit]; under `CCOc1ccc(-n2cc(-c3ccccc3)c3c(NC4CCCCC4)ncnc32)cc1`, 10 µM [rising, partial curve, poor fit].
On the same count and under the same terms, under `Nc1nc(Nc2ccccc2F)nc(NCCO)c1[N+](=O)[O-]` stands 6.31 µM [falling, single point]; under `Cc1cc(C)cc(N(CC(=O)NCc2ccco2)S(=O)(=O)c2ccccc2)c1`, 35.5 µM [falling, single point]; under `CC(=O)N(CCC(c1ccco1)C(C)C)Cc1ccc(OC(C)C)cc1` (configuration not stated), 35.5 µM [falling, single point].
Same read-out and setting: to `O=C(c1ccc(S(=O)(=O)N2CCCCC2)cc1)N1CCN(c2ccccc2F)CC1` belongs 29.1 µM [falling, partial curve, poor fit].
For `O=C(CSC(=S)N1CCCCC1)Nc1ncc2c(n1)CCCC2=O`, the AC50 under setting [1] is 3.98 µM [falling, single point].
With `COC(=O)c1ccc(NC(=O)C2CCCN(S(=O)(=O)c3cnc[nH]3)C2)cc1` (configuration not stated), the AC50 under setting [1] is 25.9 µM [falling, partial curve, poor fit].
`O=C(CCCCN1CCCCC1)c1ccc2c(c1)Cc1ccccc1-2`: the AC50 under setting [1] was 3.55 µM [falling, partial curve, poor fit].
Still for that read-out and setting: under `Cc1ccc(C(=O)NCc2cccnc2)o1` stands 6.31 µM [rising, single point].
On to `COc1cccc(NC(=O)CSc2nc(=O)n(Cc3ccccn3)c3c2CCC3)c1`, for which the AC50 by setting is: under setting [1], 35.5 µM [falling, single point]; under setting [2], 5.62 µM [rising, partial curve, poor fit].

Usually AC50 stands for the midpoint of the concentration-response curve, whichever way the signal moves.
